Source: PubChem BioAssay AID485298 (National Center for Advancing Translational Sciences (NCATS), 2010)
The whole screen tested about 320,000 compounds, of which about 740 (0.23%) were called active. Inconclusive results, whose numbers are uncertain, are shown with a selection of clear calls. Calls follow the shape of the dose curve; as a rule, active = well fitted activation curve with a large enough effect; inconclusive = small, poorly fitted or top-dose-only effect; inactive = no such curve, though single readings can be large or run the other way. A potency beside an inconclusive call is a rough fit, not a confirmed value. Some compounds were tested as several samples or in several runs, with calls that do not always agree.

Experiment: qHTS Assay for Small Molecule Inhibitors of Mitochondrial Division or Activators of Mitochondrial Fusion; also: nearly all actives have a fitted effect of over 45% in size; as to growth rescue (activation): % of control where 0% means no effect
Details: S. cerevisiae fusion-defective mutant growth rescue, CellTiterGlo 48 h; growth rescue (activation): at 46.1 µM (top of the series) unless noted
Summary of the method: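 S. cerevisiae fusion-defective temperature-sensitive mutants (e.g. fzo1-1, mgm1-5) grown 48 h at 37C in YPEG (ethanol/glycerol non-fermentable) medium with 23 nl compound per well; growth rescue read as CellTiterGlo luminescence.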
Potency is read from the fitted curve at half-maximal effect.

SMILES	Potency	growth rescue (activation)
Cc1nc2cc(-c3ccc(Cl)cc3)nn2c(C)c1CCC(=O)NC(C)c1ccc2c(c1)OCCO2 (configuration not stated)	active: 17.8 µM	–
CC(=O)N1c2ccc(S(=O)(=O)N3CCC(C(=O)Nc4ncccc4C)CC3)cc2CC1C (configuration not stated)	–	inactive: -1.42%
CCN(CC)S(=O)(=O)c1ccc2c(c1)nc(CCC(=O)O)n2C	inconclusive: 35.5 µM [activator, single point]	–
O=C1NCC(COCc2ccccc2)O1 (configuration not stated)	–	inactive: 1.24%
COc1cccc(-c2nn(-c3ccc(C)cc3)cc2C(=O)NCC(c2cccs2)N2CCOCC2)c1 (configuration not stated)	inconclusive: 20 µM [activator, single point]	–
C/C(=N\OCc1ccccc1)c1c(O)cc(C(C)C)n(-c2ccccc2)c1=O	inconclusive: 31.6 µM [activator, single point]	–
O=Nc1c(-c2c(O)[nH]c3cc(Br)ccc23)[nH]c2ccccc12	active: 1.84 µM	–
Cc1noc(C)c1COC(=O)/C=C/c1ccccc1Cl	inconclusive: 31.6 µM [activator, single point]	–
Cc1onc(-c2ccccc2)c1C(=O)N/N=C/C(Br)=C/c1ccccc1	inconclusive: 31.6 µM [activator, single point]	–
Cc1cccc(NC(=S)N=Nc2c(O)[nH]c3ccccc23)c1	inconclusive: 35.5 µM [activator, single point]	–
Clc1ccc(N/N=C/c2ccncc2)cc1Cl	inconclusive: 22.4 µM [activator, single point]	–
Cc1ccc(OCCn2cc(/C=C(\C#N)C(=O)NCC3CCCO3)c3ccccc32)cc1 (configuration not stated)	inconclusive: 11.2 µM [activator, partial curve]	–
CCC(=O)N1CCc2cc(Br)cc(S(=O)(=O)N(C)c3ccc(OC)cc3OC)c21	inconclusive: 35.5 µM [activator, single point]	–
CC1CC1C(=O)Nc1nc(-c2ccc(Cl)s2)cs1 (configuration not stated)	–	inactive: 12.6%
CN(C)c1ccc(C(CNC(=O)c2ccc(F)cc2)c2c[nH]c3ccccc23)cc1 (configuration not stated)	active: 15.8 µM	–
CCC(Sc1nc2ccccc2o1)C(=O)Nc1nnc(C)s1 (configuration not stated)	inconclusive: 10 µM [activator, partial curve]	–
O=C(CCN1C(=O)/C(=C\c2ccccc2)SC1=S)NCCCN1CCOCC1	inconclusive: 5.01 µM [activator, single point]	–
CCN1/C(=C2\C(=O)N(C)C(=S)N2C)C=Cc2ccccc21	–	inactive: -3.58%
O=C(Cn1cc(C(F)(F)F)cc(Cl)c1=O)NCc1ccc(Cl)cc1Cl	–	inactive: 9.4%
Fc1ccccc1/C=C/c1ccc2ccccc2n1	–	inactive: 2.33%
Cn1cc(CN2CCN(c3ccc(Cl)cn3)CC2)c(-c2ccccc2F)n1	–	inactive: -3.41%
CC1CC(C)CN(c2nc(NCc3ccco3)nc(N)c2[N+](=O)[O-])C1 (configuration not stated)	inconclusive: 11.2 µM [activator, partial curve]	–
CN(CC(=O)Nc1ccc(S(=O)(=O)N2CCCC2)cc1)Cc1ccc(Cl)c(Cl)c1	inconclusive: 28.2 µM [activator, single point]	–
O=C(Nc1ccc(N2CCN(C(=O)c3cccs3)CC2)cc1)c1ccc(Br)o1	inconclusive: 22.4 µM [activator, single point]	–

Complete entries, looked up by structure:
`CN(CC(=O)Nc1ccc(S(=O)(=O)N2CCCC2)cc1)Cc1ccc(Cl)c(Cl)c1` as listed: Potency: inconclusive: 28.2 µM [activator, single point]
`O=C(Cn1cc(C(F)(F)F)cc(Cl)c1=O)NCc1ccc(Cl)cc1Cl` as listed: growth rescue (activation): inactive: 9.4%
`Cc1nc2cc(-c3ccc(Cl)cc3)nn2c(C)c1CCC(=O)NC(C)c1ccc2c(c1)OCCO2` (configuration not stated) as listed: Potency: active: 17.8 µM
`CN(C)c1ccc(C(CNC(=O)c2ccc(F)cc2)c2c[nH]c3ccccc23)cc1` (configuration not stated) as listed: Potency: active: 15.8 µM

Later entries

SMILES	Potency	growth rescue (activation)
O=C(O)CC[C@@H](C(=O)O)N1C(=O)c2ccccc2C1=O	inconclusive: 6.51 µM [activator, single point]	–
Cc1ccc(C)c(N2CCN(C3CCCCC3NS(=O)(=O)c3ccccc3)CC2)c1 (configuration not stated)	–	inactive: -6.96%
COc1ccc(Cl)cc1NC(=O)CN(C(=O)c1ccco1)C1CCCCC1	inconclusive: 14.1 µM [activator, single point]	–
COc1ccccc1N1CCN(C(c2ccccc2Cl)c2nnnn2C(C)(C)C)CC1 (configuration not stated)	inconclusive: 6.31 µM [activator, partial curve]	–
O=C(OCC(=O)C12CC3CC(CC(C3)C1)C2)c1ccc(O)cc1O	inconclusive: 7.94 µM [activator, partial curve]	–
CCc1nnc(NC(=O)[C@@H](NC(=O)c2cccc(S(=O)(=O)N(CC)CC)c2)C(C)C)s1	inconclusive: 35.5 µM [activator, single point]	–
CCC(C)N(CCNC(=O)c1ccc2c(c1)NC(=O)c1ccccc1S2)C1CCCCC1 (configuration not stated)	inconclusive: 3.55 µM [activator, partial curve]	–
O=C(CCCN1C(=O)c2cccc3cccc(c23)C1=O)Nc1ccon1	inconclusive: 35.5 µM [activator, single point]	–
COC(=O)C1CCN(C(=O)c2cc(-c3ccc(Cl)s3)nc3ccccc23)CC1	inconclusive: 14.1 µM [activator, single point]	–
Cc1ccc(OCc2cnc(Cl)s2)c(C)c1	inconclusive: 35.5 µM [activator, single point]	–
COc1ccc(-c2nnc3ccc(SCc4ccccc4)nn23)cc1	inconclusive: 5.62 µM [activator, full curve]	–
O=C1CC(c2ccc(F)cc2)c2cc3c(cc2N1)CCC3 (configuration not stated)	active: 11.2 µM	–
CCOc1ccc(S(=O)(=O)Nc2cccc(OC)c2)cc1	–	inactive: 3.94%
O=C(CSCC(=O)N1CCCc2ccccc21)Nc1nc(-c2ccccc2)cs1	active: 17.8 µM	–
Cc1cccc(N2CCN(CC(=O)Nc3ccc(S(=O)(=O)N4CCOCC4)cc3)CC2)c1C	–	inactive: 1.14%
COc1ccc(OC)c(NC(=O)Cc2coc3ccc4ccccc4c23)c1	inconclusive: 17.8 µM [activator, partial curve]	–
CC(=O)Nc1ncc(Cc2cccc(Cl)c2)s1	inconclusive: 11.2 µM [activator, partial curve]	–
O=C(NC1(Cc2ccccc2)CCN(Cc2ccc(-c3ccccc3)cc2)C1=O)c1ccccc1 (configuration not stated)	inconclusive: 17.8 µM [activator, single point]	–
O=C(Nc1ccccc1)c1ccc(-c2ccccc2C(F)(F)F)o1	inconclusive: 35.5 µM [activator, single point]	–
O=C(CSC1=NC2(CCCCCC2)N=C1c1ccccc1)Nc1ccc2c(c1)OCCO2	inconclusive: 35.5 µM [activator, single point]	–
CSc1ccccc1NC(=O)c1cccs1	–	inactive: 5.45%
COc1ccc(C(C#N)c2ccc(=O)[nH]n2)cc1 (configuration not stated)	–	inactive: -0.898%
CCC1Sc2ccc(S(=O)(=O)CCC(=O)Nc3ccc(C(=O)OC)cc3)cc2NC1=O (configuration not stated)	–	inactive: 11.4%
Nc1ncnc2c1ncn2[C@@H]1O[C@H](COP(=O)(O)OP(=O)(O)OP(=O)(O)OP(=O)(O)OC[C@@H]2O[C@H](n3cnc4c(N)ncnc43)[C@@H](O)[C@H]2O)[C@@H](O)[C@H]1O	inconclusive: 29.1 µM [activator, single point]	–

Taken from above:
In Potency, `O=C(Nc1ccccc1)c1ccc(-c2ccccc2C(F)(F)F)o1` shows inconclusive: 35.5 µM [activator, single point]
In Potency, `CCC(C)N(CCNC(=O)c1ccc2c(c1)NC(=O)c1ccccc1S2)C1CCCCC1` (configuration not stated) shows inconclusive: 3.55 µM [activator, partial curve]

Going on with the list.

SMILES	Potency	growth rescue (activation)
COc1ccc(C2(C(=O)Nc3ccc(S(N)(=O)=O)cc3)CCCC2)cc1	inconclusive: 31.6 µM [activator, single point]	–
COc1ccc(-n2ncc(N(C)n3cccc3)c(Cl)c2=O)cc1	–	inactive: 5.18%
S=c1[nH]nc(CCc2ccccc2)n1Cc1ccccc1	–	inactive: -5.19%
Cc1nn(C)c(C(=O)N/N=C/c2cccc(Oc3ccccc3)c2)c1Br	–	inactive: -1.55%
COc1cccc(OC)c1C(=O)Nc1ccc(Br)c(C(=O)c2ccccc2)c1	inconclusive: 35.5 µM [activator, single point]	–
Cc1ccc(CN2CCN(Cc3cn[nH]c3C3CCCCC3)CC2CCO)cc1 (configuration not stated)	inconclusive: 12.6 µM [activator, partial curve]	–
CCOc1cc(C)c(S(=O)(=O)Nc2ccc(F)cc2)cc1C	inconclusive: 17.8 µM [activator, partial curve]	–
CCOC(=O)C1CCCN(CC(=O)Nc2c(C(=O)OC)[nH]c3ccc(Br)cc23)C1 (configuration not stated)	inconclusive: 14.1 µM [activator, partial curve]	–
COc1ccc(NC(=O)CCn2c(=O)c3cccn3c3ccccc32)cc1	–	inactive: -0.581%
CC1(C)c2ssc(=S)c2-c2ccccc2N1C(=O)CSC1=NCCS1	–	inactive: -1.3%
Cc1onc(-c2ccccc2)c1C(=O)OCC(=O)Nc1ccc(Cl)cc1	inconclusive: 35.5 µM [activator, single point]	–
CC(=O)Nc1ccc(C(=O)OCCC(C)C)cc1	inconclusive: 14.1 µM [activator, partial curve]	–
Cc1cccc(-n2ncc3c2CCCC3NC(=O)CCc2cccnc2)c1C (configuration not stated)	inconclusive: 15.8 µM [activator, partial curve, poor fit]	–
COc1cccc(NC(=O)c2oc3ccccc3c2NC(=O)C(C)(C)C)c1	inconclusive: 31.6 µM [activator, single point]	–
Fc1cccc(CNc2ncnc3ccc(-c4ccccc4Cl)cc23)c1	inconclusive: 31.6 µM [activator, single point]	–
N#Cc1ccccc1NC(=O)c1cc(=O)c2ccccc2o1	–	inactive: -0.575%
Cn1c(-c2ccccn2)[n+](C)c2ccccc21	–	inactive: 4.26%
Cc1n[nH]c(=S)n1/N=C/c1ccccc1OCc1ccc(Cl)cc1Cl	–	inactive: -1.4%
O=C1C=C(c2ccc(CO)cc2)C[C@@H](c2ccc3c(c2)OCO3)C1	–	inactive: 7.73%
Cn1nccc1C(=O)Oc1cccc(/C=N/NC(=O)c2ccccc2O)c1	inconclusive: 15.8 µM [activator, partial curve]	–
CC(C)CC(=O)NCCCCc1ccccc1	inconclusive: 35.5 µM [activator, single point]	–
COc1cccc(-c2nnc(SCC(=O)Nc3cc(C)ccc3OC)n2N)c1	–	inactive: -0.391%
Cc1cccc(C(=O)Nc2nnc(S(=O)(=O)N3CCOCC3)s2)c1	inconclusive: 10 µM [activator, partial curve]	–
CN1C(=O)CSc2ccc(NC(=O)N3CCN(c4ccccn4)CC3)cc21	–	inactive: -0.249%
